PubChem BioAssay AID720705 – Peter MacCallum Cancer Centre | 2013
Screen: 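Follow-up of 50 kinase hits using four independent siRNAs per gene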 (follow-up of hits). System: human HMEC-LST-AT1R mammary epithelial cells. Reagents: single siRNA against human genes, 25 nM per duplex. Duration: 72 h after transfection. Treatment: angiotensin II stimulation; dose and duration not given. Measured: 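ERK1/2 phosphorylation after angiotensin II, read by AlphaScreen SureFire per well, as signed fold change against averaged mock and GFP siRNA wells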. Direction: duplexes agreeing on an effect (of 4): higher = more duplexes of this gene agree on an effect; signed phospho-ERK fold change vs controls: higher = more ERK phosphorylation than controls; negative values are decreases. Rule for the call: 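a duplex scores when phospho-ERK changes more than 1.5-fold in either direction; a gene is active if at least 2 of 4 duplexes agree in direction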. Meaning of the calls: active = high/medium confidence (2-4 of 4 duplexes); inactive = low confidence (0-1 of 4 duplexes).
Shown is a random part of 200 reagents. Of all reagents, 116 (58%) are marked active. 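Negative fold changes mean less ERK phosphorylation; hits count in both directions; calls are per gene.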 A number with no mark means an inactive call. No sequences are given here.

The first 7 records, ahead of the listing:
target | PubChem SID | duplexes agreeing on an effect (of 4) | signed phospho-ERK fold change vs controls
IPPK | SID56477579 | 2 (active) | 1.97
IPPK | SID56477580 | 2 (active) | -1.35
IPPK | SID56477581 | 2 (active) | -1.51
IPPK | SID56477582 | 2 (active) | -2.39
CDK5 | SID56475651 | 2 (active) | -1.34
CDK5 | SID56475652 | 2 (active) | 1.42
CDK5 | SID56475653 | 2 (active) | -1.82

The listing, repeating the preview:
target | PubChem SID | duplexes agreeing on an effect (of 4) | signed phospho-ERK fold change vs controls
IPPK | SID56477579 | 2 (active) | 1.97
IPPK | SID56477580 | 2 (active) | -1.35
IPPK | SID56477581 | 2 (active) | -1.51
IPPK | SID56477582 | 2 (active) | -2.39
CDK5 | SID56475651 | 2 (active) | -1.34
CDK5 | SID56475652 | 2 (active) | 1.42
CDK5 | SID56475653 | 2 (active) | -1.82
CDK5 | SID56475654 | 2 (active) | -1.8
PRKAA1 | SID56477083 | 2 (active) | 1.32
PRKAA1 | SID56477084 | 2 (active) | -1.06
PRKAA1 | SID56477085 | 2 (active) | -2
PRKAA1 | SID56477086 | 2 (active) | -2.17
FLT3 | SID56475323 | 3 (active) | -3.17
FLT3 | SID56475324 | 3 (active) | -1.78
FLT3 | SID56475325 | 3 (active) | -1.5
FLT3 | SID56475326 | 3 (active) | -1.22
STYK1 | SID56475227 | 2 (active) | 1.13
STYK1 | SID56475228 | 2 (active) | -1.22
STYK1 | SID56475229 | 2 (active) | -2.96
STYK1 | SID56475230 | 2 (active) | -2.07
AKT3 | SID56475115 | 2 (active) | 1.4
AKT3 | SID56475116 | 2 (active) | -0.196
AKT3 | SID56475117 | 2 (active) | -2.33
AKT3 | SID56475118 | 2 (active) | -1.83
FGFR3 | SID56475307 | 2 (active) | -0.106
FGFR3 | SID56475308 | 2 (active) | -1.57
FGFR3 | SID56475309 | 2 (active) | -3.69
FGFR3 | SID56475310 | 2 (active) | 1.28
BMX | SID152147944 | 3 (active) | 1.88
BMX | SID152151107 | 3 (active) | -1.89
BMX | SID152153585 | 3 (active) | -2.27
BMX | SID152154557 | 3 (active) | -2.47
COASY | SID56477723 | 1 | -1.42
COASY | SID56477724 | 1 | 0.228
COASY | SID56477725 | 1 | 1.38
COASY | SID56477726 | 1 | 1.77
FRK | SID56475331 | 2 (active) | -0.007
FRK | SID56475332 | 2 (active) | 1.1
FRK | SID56475333 | 2 (active) | -2.57
FRK | SID56475334 | 2 (active) | -1.55
PRKCH | SID56476571 | 1 | -0.013
PRKCH | SID56476572 | 1 | 1.67
PRKCH | SID56476573 | 1 | -1.24
PRKCH | SID56476574 | 1 | -2.42
PRKCI | SID56476575 | 1 | 1.48
PRKCI | SID56476576 | 1 | -2.06
PRKCI | SID56476577 | 1 | -1.91
PRKCI | SID56476578 | 1 | -1.61
AKT1 | SID56475107 | 3 (active) | -2.05
AKT1 | SID56475109 | 3 (active) | -1.54
AKT1 | SID56475110 | 3 (active) | -2.33
AKT1 | SID135611202 | 3 (active) | -1.41
EPHB3 | SID56475267 | 1 | 0.026
EPHB3 | SID56475268 | 1 | -1.25
EPHB3 | SID56475269 | 1 | -2.54
EPHB3 | SID56475270 | 1 | 1.22
CHKA | SID56477583 | 4 (active) | -1.86
CHKA | SID56477585 | 4 (active) | -2.02
CHKA | SID56477586 | 4 (active) | -1.78
CHKA | SID135612133 | 4 (active) | -3.02
MELK | SID56476279 | 1 | -1.29
MELK | SID56476280 | 1 | 1.13
MELK | SID56476281 | 1 | -1.36
MELK | SID56476282 | 1 | -1.62
EGFR | SID56475232 | 3 (active) | -3.71
EGFR | SID56475234 | 3 (active) | -1.46
EGFR | SID135625740 | 3 (active) | -1.56
EGFR | SID135625741 | 3 (active) | -1.56
MAP3K8 | SID56475911 | 1 | -1.35
MAP3K8 | SID56475912 | 1 | -1.48
MAP3K8 | SID56475913 | 1 | 1.68
MAP3K8 | SID56475914 | 1 | -1.57
TRIO | SID56477151 | 2 (active) | 1.23
TRIO | SID56477152 | 2 (active) | -1.65
TRIO | SID56477153 | 2 (active) | 0.009
TRIO | SID56477154 | 2 (active) | -2.22
FN3KRP | SID56477911 | 4 (active) | -2.93
FN3KRP | SID56477912 | 4 (active) | -1.57
FN3KRP | SID56477913 | 4 (active) | -2.42
FN3KRP | SID56477914 | 4 (active) | -3.94
ERBB2 | SID56475279 | 4 (active) | -2.78
ERBB2 | SID56475280 | 4 (active) | -1.86
ERBB2 | SID56475281 | 4 (active) | -1.5
ERBB2 | SID56475282 | 4 (active) | -1.59
MAPK1 | SID56475975 | 2 (active) | -1.08
MAPK1 | SID56475976 | 2 (active) | -1.77
MAPK1 | SID56475977 | 2 (active) | 1.28
MAPK1 | SID56475978 | 2 (active) | -1.61
HIPK3 | SID56476783 | 1 | -1.17
HIPK3 | SID56476784 | 1 | 1.05
HIPK3 | SID56476785 | 1 | 1.26
HIPK3 | SID56476786 | 1 | 2.55
PI4KA | SID56477804 | 2 (active) | 1.76
PI4KA | SID56477805 | 2 (active) | -2.2
PI4KA | SID56477806 | 2 (active) | -1.82
PI4KA | SID135612154 | 2 (active) | 1.27
PIP5K1B | SID134230745 | 1 | 2.42
PIP5K1B | SID134230746 | 1 | -1.58
PIP5K1B | SID134230747 | 1 | 1.12
PIP5K1B | SID134230748 | 1 | 1.16
PIK3CA | SID56475149 | 2 (active) | -1.52
PIK3CA | SID56475150 | 2 (active) | -1.77
PIK3CA | SID135611211 | 2 (active) | 2.27
PIK3CA | SID135611212 | 2 (active) | 1.6
GRK1 | SID56476595 | 0 | 1.35
GRK1 | SID56476596 | 0 | 1.41
GRK1 | SID56476597 | 0 | 1.28
GRK1 | SID56476598 | 0 | -1.17
